Results reported in patent CN110862456A.
No constants are given. Whether binding was seen depends on the method and setting. Some entries that bind do so weakly or less than the wild type.

By UniProt entry, the sequences of proteins in these tests, tags left out. Residues count along the entry.
UniProt P06731, residues 35-685: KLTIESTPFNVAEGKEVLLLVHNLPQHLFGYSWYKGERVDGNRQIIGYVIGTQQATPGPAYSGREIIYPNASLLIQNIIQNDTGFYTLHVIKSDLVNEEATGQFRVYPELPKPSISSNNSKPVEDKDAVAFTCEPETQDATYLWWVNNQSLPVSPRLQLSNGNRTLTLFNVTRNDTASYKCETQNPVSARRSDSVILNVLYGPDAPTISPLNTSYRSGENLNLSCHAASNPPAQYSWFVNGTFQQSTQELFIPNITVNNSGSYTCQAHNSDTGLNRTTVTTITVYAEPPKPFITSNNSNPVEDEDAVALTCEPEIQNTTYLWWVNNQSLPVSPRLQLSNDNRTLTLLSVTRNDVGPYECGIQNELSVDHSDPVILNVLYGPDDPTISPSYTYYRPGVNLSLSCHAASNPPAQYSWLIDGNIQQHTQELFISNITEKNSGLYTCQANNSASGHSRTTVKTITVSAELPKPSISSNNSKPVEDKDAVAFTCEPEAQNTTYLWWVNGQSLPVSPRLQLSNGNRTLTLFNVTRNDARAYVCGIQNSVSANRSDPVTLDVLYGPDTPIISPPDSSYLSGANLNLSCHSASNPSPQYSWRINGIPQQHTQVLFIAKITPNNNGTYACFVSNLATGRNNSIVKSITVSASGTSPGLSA

Target: CEA抗原 (carcinoembryonic antigen, coated in ELISA) (UniProt P06731)
Test: ELISA, coated antigen

B1: OLD-2ND-1-H3-scFv-mIgG1 (Fc fusion, not shown: a dimerising Fc or GST)
chain: EIVLTQSPGSLSSSPGERATLSCRASQSVANNFLAWYQQKAGQAPRLLIYGASSRATGIPDRFSGSGSGTDFTLTISRLEPEDFAVYFCQQYGISPLTFGPGTKVEIKGGGGSGGGGSGGGGSMAEVQLVESRGGLVQPGRSLRLSCAASGFTFDDYAMHWVRQAPGKGLEWVSAISGSGGSTYYADSVKGRFTISRDNSKNTLYLQMNSLRVEDTAVYYCAKGRYSSRWSASDIWGQGTMVTVSS
  binding: binds
